The test concerns the target TLDc domain of human NCOA7-AS (residues 54-219), after TEV cleavage (human). The test is described as follows: SEC; Superdex 75 10/300 GL, buffer D (50 mM Tris-HCl pH 8, 100 mM NaCl, 5 mM beta-mercaptoethanol); protein loaded at 5 mg ml^-1; elution volume 13.4 ml; both purified.

Results are given in words; binding and its absence hold for the method and conditions named.

B1: TLDc domain of human NCOA7-AS (residues 54-219), after TEV cleavage (domain or fragment)
chain: GMRPHSALLENMHIEQLARRLPARVQGYPWRLAYSTLEHGTSLKTLYRKSASLDSPVLLVIKDMDNQIFGAYATHPFKFSDHYYGTGETFLYTFSPHFKVFKWSGENSYFINGDISSLELGGGGGRFGLWLDADLYHGRSNSCSTFNNDILSKKEDFIVQDLEVWAFD
For B1, the binding entry is “no binding (tested: 5 mg ml^-1 loaded)”.
